Measured values from patent US8574882B2, “Thermostable 1,5-anhydroglucitol dehydrogenase, and method for measurement of 1,5-anhydroglucitol by using the same” (Nippon Kayaku Kabushiki Kaisha, priority 2008, dated 2013).

Assay: Assay of 1,5-AG by colorimetry (WST-1, HITACHI 7020)
Conditions: 450 nm / 570 nm

B1: Ver. 7.1: thermostable 1,5-AG dehydrogenase, SEQ ID NO: 23; Ver. 7.0 plus G4A (protein)
chain: MEFAGQPDIVIIGTGIGGASIAAGLSASGADILILETGESLPDRPENRDQHAIFQRGFFRPKEFWYETDGTPFNPGNYYNVGGNSKFYGAVLMRYRREDFEELAHLEGVSPAWPFAYDELEPWYCKAEELFQVRGELGDDPTEPYHSKPYSYPAIRDESPIADMRARLKKAGLHPASLPLGVDIERWLAKAKTPWDAHPNSNDGKMDAETCPLALALKHPNVGLETSARVTKLEAGPDGKTIVAVHYVKNGEALVLRPKLVILSAGAVQSAALLLRSGLANRSDQVGRNFMNHNASAVIGFDPRYRNDSVYQKTFGFNDYYLSDGAGGPPLGNVQLLGRVSGAILKSYMRQVPEWFLNRIARHTIDFYAMSEDLPSPESRVSVDGDRIILHWVRSNWKAHLMLVDKLKSALRAAGFPVVLSRAFDRRTPSHQCGTVRIGDNPATAPLDPYCRAYDHPNLYVVDASFLPTSAAVNPALTIAAQALRVADHLNREVLA
modifications: Mutated 1,5-anhydroglucitol dehydrogenase gene
notes: Ver; 7.0 plus G4A
Q: Which Increase in absorbance (standard solution 0 μg/mL 1,5-AG in saline) does the source give for B1 here?
A: 0.0025

Q: And the Increase in absorbance (standard solution 50 μg/mL 1,5-AG in saline)?
A: 0.146
